Source: the supplement of paper PMC8728848
Some of the results follow.

Legend:
Test in all cases: glycan array binding signal (z-score within array); higher = stronger binding
Conditions in all cases: glycan notation: IUPAC condensed, linker removed
Fuc(a1-3)GlcNAc = target: Fuc(a1-3)GlcNAc
In short: (§1)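 Glycan array data came from 3228 arrays in the Consortium for Functional Glycomics database, and only arrays with an available protein sequence were kept. Glycan names were put into IUPAC-condensed notation, and columns mapping to the same glycan were averaged. The binding signal is a within-array Z-score, averaged across arrays of one protein sequence run at different concentrations or buffers and across linkers. A negative Z-score can be read as non-binding.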

[1] = target: Fuc(a1-3)[Gal(b1-4)]Glc6S
In short: as §1

[2] = target: Fuc(a1-3)[Gal(b1-4)]GlcNAc
In short: as §1

[3] = target: Fuc(a1-3)[Gal(b1-4)]GlcNAc(b1-2)Man
In short: as §1

[4] = target: Fuc(a1-3)[Gal(b1-4)]GlcNAc(b1-2)Man(a1-3)[Fuc(a1-3)[Gal(b1-4)]GlcNAc(b1-2)Man(a1-6)]Man(b1-4)GlcNAc(b1-4)GlcNAc
In short: as §1

[5] = target: Fuc(a1-3)[Gal(b1-4)]GlcNAc(b1-2)Man(a1-3)[Fuc(a1-3)[Gal(b1-4)]GlcNAc(b1-2)Man(a1-6)]Man(b1-4)GlcNAc(b1-4)[Fuc(a1-6)]GlcNAc
In short: as §1

[6] = target: Fuc(a1-3)[Gal(b1-4)]GlcNAc(b1-3)Gal(b1-3)[Fuc(a1-4)]GlcNAc
In short: as §1

[7] = target: Fuc(a1-3)[Gal(b1-4)]GlcNAc(b1-3)Gal(b1-4)[Fuc(a1-3)]GlcNAc
In short: as §1

[8] = target: Fuc(a1-3)[Gal(b1-4)]GlcNAc(b1-3)Gal(b1-4)[Fuc(a1-3)]GlcNAc(b1-3)Gal(b1-4)[Fuc(a1-3)]GlcNAc
In short: as §1

[9] = target: Fuc(a1-3)[Gal(b1-4)]GlcNAc(b1-3)GalNAc
In short: as §1

[10] = target: Fuc(a1-3)[Gal(b1-4)]GlcNAc(b1-6)GalNAc
In short: as §1

[11] = target: Fuc(a1-3)[Gal(b1-4)]GlcNAc(b1-6)[Gal(b1-3)GlcNAc(b1-3)]Gal(b1-4)Glc
In short: as §1

[12] = target: Fuc(a1-3)[Gal(b1-4)]GlcNAc6S
In short: as §1

[13] = target: Fuc(a1-3)[Gal3S(b1-4)]Glc
In short: as §1

[14] = target: Fuc(a1-3)[Gal3S(b1-4)]GlcNAc
In short: as §1

[15] = target: Fuc(a1-3)[Gal3S(b1-4)]GlcNAc6S
In short: as §1

[16] = target: Fuc(a1-3)[GalNAc(b1-4)]GlcNAc
In short: as §1

[17] = target: Fuc(a1-3)[GalNAc(b1-4)]GlcNAc6S
In short: as §1

Fuc(a1-4)GlcNAc = target: Fuc(a1-4)GlcNAc
In short: as §1

Fuc(b1-3)GlcNAc = target: Fuc(b1-3)GlcNAc
In short: as §1

Gal(a1-2)Gal = target: Gal(a1-2)Gal
In short: as §1

Gal(a1-3)Gal = target: Gal(a1-3)Gal
In short: as §1

Gal(a1-3)Gal(b1-3)GlcNAc = target: Gal(a1-3)Gal(b1-3)GlcNAc
In short: as §1

[18] = target: Gal(a1-3)Gal(b1-3)GlcNAc(b1-2)Man
In short: as §1

[19] = target: Gal(a1-3)Gal(b1-3)GlcNAc(b1-2)Man(a1-3)[Gal(a1-3)Gal(b1-3)GlcNAc(b1-2)Man(a1-6)]Man(b1-4)GlcNAc(b1-4)GlcNAc
In short: as §1

[20] = target: Gal(a1-3)Gal(b1-3)GlcNAc(b1-3)GalNAc
In short: as §1

[21] = target: Gal(a1-3)Gal(b1-3)GlcNAc(b1-6)GalNAc
In short: as §1

[22] = target: Gal(a1-3)Gal(b1-3)[Fuc(a1-4)]GlcNAc(b1-2)Man(a1-3)[Gal(a1-3)Gal(b1-3)[Fuc(a1-4)]GlcNAc(b1-2)Man(a1-6)]Man(b1-4)GlcNAc(b1-4)GlcNAc
In short: as §1

Gal(a1-3)Gal(b1-4)Glc = target: Gal(a1-3)Gal(b1-4)Glc
In short: as §1

Gal(a1-3)Gal(b1-4)GlcNAc = target: Gal(a1-3)Gal(b1-4)GlcNAc
In short: as §1

B1: GS7807Q-bfa-507-19-507 (Bacteroides fragilis) (protein)
chain: ASCNKFDDLNTNPDAATKVTAPMLATKLILNITQQGSAKNFVYHSMLSKQIAWSENASDEQYNLFGRTDFDGYTILTNCQKMVDAANEGDKDSYAALAKFMKAYKLFYKSLEVGDIPYSDALKGEEGVQKPKYDTQKEVMRQVLEDLEEAYTLFSSGSDFDGDPIFGGDTENWKKTVVAFELKVLTHLCKKDTDADLKVKERFARLVSSGSLMTSNADNFQLVYSNKAGQLYPFYYTQNKHSDYLMMSSVIIDNLKKFNDYRMFYYASPAKAQTDKGIKDSEWDAYLSIDPSDSYSNISVLYGKGEFCLANLRYTRVPEGEPLMRLSYAEQNFILAEGAVRGWISEDASTYYKKGIEASMNFIADNTPDKEEYTHGRTITQEYIQEYLAQPVIQLSGDKEKDLEMILLQRYLASFLQHPYDAYYDYRRTGYPVLPINPSTNLNTEKNKIPTRWMYPEAEFSYNPDNANEAVQRQYNGSDDVNKLMWILQ
For B1, the “glycan array binding signal (z-score)” value (Fuc(a1-3)GlcNAc) was -0.853, the “glycan array binding signal (z-score)” value [1] was 1.06 and the “glycan array binding signal (z-score)” value [2] was 0.144. For the same binder, the “glycan array binding signal (z-score)” value [3] was -0.188, the “glycan array binding signal (z-score)” value [4] was -0.076 and the “glycan array binding signal (z-score)” value [5] was -0.03. For the same binder, the “glycan array binding signal (z-score)” value [6] was -0.489, the “glycan array binding signal (z-score)” value [7] was 0.613 and the “glycan array binding signal (z-score)” value [8] was 1.93. For the same binder, the “glycan array binding signal (z-score)” value [9] was -0.452, the “glycan array binding signal (z-score)” value [10] was -0.103 and the “glycan array binding signal (z-score)” value [11] was 0.297. For the same binder, the “glycan array binding signal (z-score)” value [12] was -1.03, the “glycan array binding signal (z-score)” value [13] was 0.132 and the “glycan array binding signal (z-score)” value [14] was -1.22. For the same binder, the “glycan array binding signal (z-score)” value [15] was -0.657, the “glycan array binding signal (z-score)” value [16] was 0.797 and the “glycan array binding signal (z-score)” value [17] was 2.06. The “glycan array binding signal (z-score)” value (Fuc(a1-4)GlcNAc) was -0.527, the “glycan array binding signal (z-score)” value (Fuc(b1-3)GlcNAc) was -0.712 and the “glycan array binding signal (z-score)” value (Gal(a1-2)Gal) was -0.481. The “glycan array binding signal (z-score)” value (Gal(a1-3)Gal) was 0.196, the “glycan array binding signal (z-score)” value (Gal(a1-3)Gal(b1-3)GlcNAc) was -0.088 and the “glycan array binding signal (z-score)” value [18] was 1.63. For the same binder, the “glycan array binding signal (z-score)” value [19] was 0.365, the “glycan array binding signal (z-score)” value [20] was 1.09 and the “glycan array binding signal (z-score)” value [21] was 0.078. The “glycan array binding signal (z-score)” value [22] was 0.452, the “glycan array binding signal (z-score)” value (Gal(a1-3)Gal(b1-4)Glc) was -0.67 and the “glycan array binding signal (z-score)” value (Gal(a1-3)Gal(b1-4)GlcNAc) was -0.146.
